Measurements: paper PMC4373775
Results are given in words; binding and its absence hold for the method and conditions named. Some binding calls cover weakened binding; strength is not graded here. Tags and fused reporters may be left off the sequences shown.

What was measured:
[1] = molecular target: Mycobacterium tuberculosis ParB, wild type (M. tuberculosis H37Rv) (UniProt P9WIJ9); assay: two-hybrid
[2] = molecular target: Mycobacterium tuberculosis ParA (M. tuberculosis) (UniProt A5U9P6); assay: two-hybrid

B1: Mycobacterium tuberculosis ParB, wild type (protein, UniProt P9WIJ9 1-344)
chain: MTQPSRRKGGLGRGLAALIPTGPADGESGPPTLGPRMGSATADVVIGGPVPDTSVMGAIYREIPPSAIEANPRQPRQVFDEEALAELVHSIREFGLLQPIVVRSLAGSQTGVRYQIVMGERRWRAAQEAGLATIPAIVRETGDDNLLRDALLENIHRVQLNPLEEAAAYQQLLDEFGVTHDELAARIGRSRPLITNMIRLLKLPIPVQRRVAAGVLSAGHARALLSLEAGPEAQEELASRIVAEGLSVRATEETVTLANHEANRQAHHSDATTPAPPRRKPIQMPGLQDVAERLSTTFDTRVTVSLGKRKGKIVVEFGSVDDLARIVGLMTTDGRDKGLHRDAL
- binding [1]: binds
- binding [2]: binds
